From PubChem BioAssay AID248 (DTP/NCI, 2004)
The list does not hold the whole screen: it gathers tests that were run many times, whatever their T/C, doses with no T/C, and many T/C values between a quarter and a half above the control. Other doses and runs of a compound stand elsewhere. T/C: endpoint of the treated group in % of that of the vehicle group. Some doses have a count of surviving animals in place of a T/C: the source files T/C as zero there, which appears to mark a toxic dose or a test without result, not a measured value. Some doses without a T/C left all or most animals alive at the check, yet need not have been tolerated: survival well below the control is almost never listed, so the zero probably covers shortened survival too. Survivors were counted at the toxicity check, usually on the fifth day, unless a day is given; later deaths do not show. Schedule codes are those of the source, taken here to give the interval after Q, in days (D) or hours (H), and the number of doses after X. Where survival is the endpoint, this PubChem deposit counts one and a half times the control or more as active, and values a quarter to a half above the control carry no call in these data; other NCI protocols may use other cut-offs.

Test system: L1210 leukemia ip in BDF1 mice, survival T/C
Test: NCI In Vivo Anticancer Drug Screen. Data for tumor model L1210 Leukemia (intraperitoneal) in B6D2F1 (BDF1) mice
Conditions: T/C endpoint: mean survival time, higher T/C = longer survival

OCn1cnc2c(SC3CCCC3)ncnc21
T/C (dose: 40.0 mg/kg/injection, schedule: Q01DX009 (ip), vehicle: Klucel (hydroxypropylcellulose) (HPC)): 134 % of control
T/C (dose: 53.0 mg/kg/injection, schedule: Q01DX009 (ip), vehicle: saline): 141 % of control
T/C (dose: 60.0 mg/kg/injection, schedule: Q01DX009 (ip), vehicle: Klucel (hydroxypropylcellulose) (HPC)): 142 % of control
T/C (dose: 80.0 mg/kg/injection, schedule: Q01DX009 (ip), vehicle: saline): 147 % of control
T/C (dose: 80.0 mg/kg/injection, schedule: Q01DX015 (ip), vehicle: saline): 140 % of control
T/C (dose: 120.0 mg/kg/injection, schedule: Q01DX009 (ip), vehicle: other): 133 % of control
T/C (dose: 120.0 mg/kg/injection, schedule: Q01DX009 (ip), vehicle: saline): 130 % of control
T/C (dose: 120.0 mg/kg/injection, schedule: Q01DX015 (ip), vehicle: saline): 148 % of control
T/C (dose: 133.0 mg/kg/injection, schedule: Q01DX009 (ip), vehicle: Klucel (hydroxypropylcellulose) (HPC)): 134 % of control
T/C (dose: 180.0 mg/kg/injection, schedule: Q01DX009 (ip), vehicle: saline): 133 % of control
T/C (dose: 270.0 mg/kg/injection, schedule: Q01DX009 (ip), vehicle: other): 136 % of control
T/C (dose: 270.0 mg/kg/injection, schedule: Q01DX009 (ip), vehicle: saline): 143 % of control
survivor count (dose: 300.0 mg/kg/injection, schedule: Q01DX009 (ip), vehicle: Klucel (hydroxypropylcellulose) (HPC)): 0 of 4
T/C (dose: 400.0 mg/kg/injection, schedule: Q01DX009 (ip), vehicle: saline): 147 % of control
survivor count (dose: 405.0 mg/kg/injection, schedule: Q01DX015 (ip), vehicle: saline): 3 of 6

CC1(C)C2CC3C(=CCC4C(=O)OC(=O)C43)C1C2 (stereo not given)
survivor count (dose: 400.0 mg/kg/injection, schedule: Q01DX009 (ip), vehicle: Klucel (hydroxypropylcellulose) (HPC)): 3 of 6

CCC[As](=O)(O)c1ccc(Cl)cc1
survivor count (dose: 50.0 mg/kg/injection, schedule: Q01DX001 (ip), vehicle: Klucel (hydroxypropylcellulose) (HPC)): 0 of 3
survivor count (dose: 100.0 mg/kg/injection, schedule: Q01DX001 (ip), vehicle: Klucel (hydroxypropylcellulose) (HPC)): 0 of 3
survivor count (dose: 200.0 mg/kg/injection, schedule: Q01DX001 (ip), vehicle: Klucel (hydroxypropylcellulose) (HPC)): 0 of 3
survivor count (dose: 400.0 mg/kg/injection, schedule: Q01DX001 (ip), vehicle: Klucel (hydroxypropylcellulose) (HPC)): 0 of 3

COC(=O)C(N)Cc1ccc(O)c(N(CCCl)CCCl)c1 (stereo not given)
T/C (dose: 0.02 mg/kg/injection, schedule: Q01DX009 (ip), vehicle: saline): 125 % of control
T/C (dose: 0.05 mg/kg/injection, schedule: Q01DX009 (ip), vehicle: saline): 134 % of control
T/C (dose: 0.1 mg/kg/injection, schedule: Q01DX009 (ip), vehicle: saline): 149 % of control
survivor count (dose: 2.0 mg/kg/injection, schedule: Q01DX009 (ip), vehicle: saline): 6 of 6
survivor count (dose: 4.4 mg/kg/injection, schedule: Q01DX009 (ip), vehicle: saline): 5 of 6
survivor count (dose: 6.6 mg/kg/injection, schedule: Q01DX009 (ip), vehicle: saline): 4 of 6
survivor count (dose: 10.0 mg/kg/injection, schedule: Q01DX009 (ip), vehicle: saline): 3 of 6
survivor count (dose: 15.0 mg/kg/injection, schedule: Q01DX001 (ip), vehicle: saline): 2 of 6
survivor count (dose: 15.0 mg/kg/injection, schedule: Q01DX009 (ip), vehicle: saline): 1 of 6
survivor count (dose: 30.0 mg/kg/injection, schedule: Q01DX001 (ip), vehicle: saline): 1 of 6
survivor count (dose: 60.0 mg/kg/injection, schedule: Q01DX001 (ip), vehicle: saline): 0 of 6
survivor count (dose: 75.0 mg/kg/injection, schedule: Q01DX001 (sc), vehicle: saline): 0 of 6
survivor count (dose: 150.0 mg/kg/injection, schedule: Q01DX001 (sc), vehicle: saline): 0 of 6
survivor count (dose: 300.0 mg/kg/injection, schedule: Q01DX001 (sc), vehicle: saline): 0 of 6

Cc1ccc(C[As](C)(=O)O)cc1
survivor count (dose: 100.0 mg/kg/injection, schedule: Q04DX003 (ip), vehicle: Klucel (hydroxypropylcellulose) (HPC)): 2 of 6
survivor count (dose: 200.0 mg/kg/injection, schedule: Q04DX003 (ip), vehicle: Klucel (hydroxypropylcellulose) (HPC)): 2 of 6
survivor count (dose: 400.0 mg/kg/injection, schedule: Q04DX003 (ip), vehicle: Klucel (hydroxypropylcellulose) (HPC)): 0 of 6

CC12CC3CC(C)(C1)CC(CN=C(N)CSSCC(N)=NCC14CC5CC(C)(CC(C)(C5)C1)C4)(C3)C2
survivor count (dose: 100.0 mg/kg/injection, schedule: Q04DX003 (ip), vehicle: saline with Tween-80): 0 of 6
survivor count (dose: 200.0 mg/kg/injection, schedule: Q04DX003 (ip), vehicle: saline with Tween-80): 0 of 6
survivor count (dose: 400.0 mg/kg/injection, schedule: Q04DX003 (ip), vehicle: saline with Tween-80): 0 of 6
